Drawing on paper PMC4577213, this text covers binding for four substances.

Sequences of proteins named here, by UniProt entry; tags and fusion partners are left off. A change or cut given only in a name is not applied to a line headed by its entry.
UniProt Q9V460: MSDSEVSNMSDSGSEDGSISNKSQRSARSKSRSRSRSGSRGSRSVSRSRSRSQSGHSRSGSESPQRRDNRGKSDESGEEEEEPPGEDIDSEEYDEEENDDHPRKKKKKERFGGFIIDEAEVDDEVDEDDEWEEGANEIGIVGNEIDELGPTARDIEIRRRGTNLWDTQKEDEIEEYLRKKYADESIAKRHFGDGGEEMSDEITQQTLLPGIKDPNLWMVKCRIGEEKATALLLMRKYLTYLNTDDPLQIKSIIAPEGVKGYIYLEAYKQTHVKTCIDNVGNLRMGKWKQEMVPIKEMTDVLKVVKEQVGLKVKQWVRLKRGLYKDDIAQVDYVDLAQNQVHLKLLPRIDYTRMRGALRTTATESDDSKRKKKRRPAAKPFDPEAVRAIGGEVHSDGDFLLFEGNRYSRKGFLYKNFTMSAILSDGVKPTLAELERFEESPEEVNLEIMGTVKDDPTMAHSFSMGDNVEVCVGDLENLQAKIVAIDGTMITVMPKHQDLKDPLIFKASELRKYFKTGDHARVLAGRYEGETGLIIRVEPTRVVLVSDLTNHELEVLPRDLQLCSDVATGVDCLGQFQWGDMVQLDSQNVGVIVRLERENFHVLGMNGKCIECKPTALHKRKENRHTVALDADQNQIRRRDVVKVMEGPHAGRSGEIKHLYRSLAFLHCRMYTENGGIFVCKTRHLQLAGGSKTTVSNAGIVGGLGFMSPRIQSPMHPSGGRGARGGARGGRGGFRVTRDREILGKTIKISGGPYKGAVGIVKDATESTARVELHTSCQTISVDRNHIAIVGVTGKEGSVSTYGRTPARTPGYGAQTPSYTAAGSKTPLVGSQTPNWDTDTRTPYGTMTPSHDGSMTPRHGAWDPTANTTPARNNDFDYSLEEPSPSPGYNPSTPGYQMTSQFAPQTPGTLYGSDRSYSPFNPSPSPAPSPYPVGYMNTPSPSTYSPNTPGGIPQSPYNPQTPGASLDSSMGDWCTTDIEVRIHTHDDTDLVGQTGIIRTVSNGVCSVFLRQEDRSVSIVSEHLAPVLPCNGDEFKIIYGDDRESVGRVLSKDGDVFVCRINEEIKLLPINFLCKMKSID
UniProt P45975: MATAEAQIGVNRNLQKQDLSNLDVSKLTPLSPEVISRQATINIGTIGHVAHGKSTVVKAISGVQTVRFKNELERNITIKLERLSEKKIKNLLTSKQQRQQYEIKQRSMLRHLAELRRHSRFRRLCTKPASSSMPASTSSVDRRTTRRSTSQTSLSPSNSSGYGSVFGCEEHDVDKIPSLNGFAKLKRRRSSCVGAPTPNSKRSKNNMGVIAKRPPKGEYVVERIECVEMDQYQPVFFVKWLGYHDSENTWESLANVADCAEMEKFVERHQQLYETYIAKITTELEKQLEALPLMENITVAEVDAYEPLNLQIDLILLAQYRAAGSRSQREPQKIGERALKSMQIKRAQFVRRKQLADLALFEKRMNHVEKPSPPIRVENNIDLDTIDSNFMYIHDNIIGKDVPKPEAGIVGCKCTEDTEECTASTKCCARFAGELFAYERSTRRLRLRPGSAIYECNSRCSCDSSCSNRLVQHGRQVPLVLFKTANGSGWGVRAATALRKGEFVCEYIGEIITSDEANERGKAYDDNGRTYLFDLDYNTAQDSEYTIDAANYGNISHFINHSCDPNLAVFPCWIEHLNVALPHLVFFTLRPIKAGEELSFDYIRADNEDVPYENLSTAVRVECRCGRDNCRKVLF
UniProt Q9W420: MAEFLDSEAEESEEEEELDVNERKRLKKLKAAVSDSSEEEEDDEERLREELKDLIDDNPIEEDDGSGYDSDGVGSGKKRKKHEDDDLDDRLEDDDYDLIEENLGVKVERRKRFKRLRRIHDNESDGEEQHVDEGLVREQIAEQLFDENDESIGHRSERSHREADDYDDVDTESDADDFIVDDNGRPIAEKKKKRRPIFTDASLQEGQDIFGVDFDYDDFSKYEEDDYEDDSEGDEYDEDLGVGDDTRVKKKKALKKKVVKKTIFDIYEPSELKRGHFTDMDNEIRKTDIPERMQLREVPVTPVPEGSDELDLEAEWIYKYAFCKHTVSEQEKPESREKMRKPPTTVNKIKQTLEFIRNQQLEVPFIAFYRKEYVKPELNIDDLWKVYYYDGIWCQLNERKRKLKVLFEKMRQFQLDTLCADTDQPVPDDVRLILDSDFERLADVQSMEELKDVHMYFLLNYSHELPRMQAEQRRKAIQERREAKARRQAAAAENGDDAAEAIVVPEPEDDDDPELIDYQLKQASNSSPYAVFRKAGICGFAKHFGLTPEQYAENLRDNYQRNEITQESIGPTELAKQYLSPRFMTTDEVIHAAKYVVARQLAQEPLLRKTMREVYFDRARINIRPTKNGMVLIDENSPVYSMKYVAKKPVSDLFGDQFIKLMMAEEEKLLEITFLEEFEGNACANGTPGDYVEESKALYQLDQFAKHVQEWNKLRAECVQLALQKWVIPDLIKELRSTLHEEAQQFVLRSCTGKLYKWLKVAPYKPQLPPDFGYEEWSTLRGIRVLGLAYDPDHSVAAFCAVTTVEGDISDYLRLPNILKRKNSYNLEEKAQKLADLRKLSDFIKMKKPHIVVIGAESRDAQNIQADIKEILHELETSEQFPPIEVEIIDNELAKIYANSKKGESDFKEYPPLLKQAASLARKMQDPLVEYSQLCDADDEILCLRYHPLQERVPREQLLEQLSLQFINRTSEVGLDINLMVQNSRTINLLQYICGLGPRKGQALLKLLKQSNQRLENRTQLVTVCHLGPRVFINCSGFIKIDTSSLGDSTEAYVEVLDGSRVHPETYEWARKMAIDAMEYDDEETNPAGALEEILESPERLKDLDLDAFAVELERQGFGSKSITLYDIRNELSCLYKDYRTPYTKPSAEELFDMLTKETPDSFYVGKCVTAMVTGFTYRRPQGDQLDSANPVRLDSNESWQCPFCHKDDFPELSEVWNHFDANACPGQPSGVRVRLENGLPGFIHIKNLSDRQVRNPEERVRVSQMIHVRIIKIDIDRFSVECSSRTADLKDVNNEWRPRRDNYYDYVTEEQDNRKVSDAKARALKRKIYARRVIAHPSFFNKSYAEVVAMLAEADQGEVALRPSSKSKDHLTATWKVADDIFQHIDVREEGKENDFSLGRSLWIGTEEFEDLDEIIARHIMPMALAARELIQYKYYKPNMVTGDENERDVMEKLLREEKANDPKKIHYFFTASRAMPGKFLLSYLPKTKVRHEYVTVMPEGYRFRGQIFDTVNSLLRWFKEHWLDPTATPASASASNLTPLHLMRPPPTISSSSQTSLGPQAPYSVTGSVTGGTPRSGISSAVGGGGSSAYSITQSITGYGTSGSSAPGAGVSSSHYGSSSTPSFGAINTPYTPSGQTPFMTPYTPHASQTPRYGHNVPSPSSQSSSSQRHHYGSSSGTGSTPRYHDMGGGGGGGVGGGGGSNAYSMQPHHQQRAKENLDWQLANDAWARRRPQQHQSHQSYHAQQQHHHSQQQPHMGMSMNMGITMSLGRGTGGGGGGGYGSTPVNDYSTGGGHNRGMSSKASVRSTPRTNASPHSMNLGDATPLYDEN
UniProt Q94517: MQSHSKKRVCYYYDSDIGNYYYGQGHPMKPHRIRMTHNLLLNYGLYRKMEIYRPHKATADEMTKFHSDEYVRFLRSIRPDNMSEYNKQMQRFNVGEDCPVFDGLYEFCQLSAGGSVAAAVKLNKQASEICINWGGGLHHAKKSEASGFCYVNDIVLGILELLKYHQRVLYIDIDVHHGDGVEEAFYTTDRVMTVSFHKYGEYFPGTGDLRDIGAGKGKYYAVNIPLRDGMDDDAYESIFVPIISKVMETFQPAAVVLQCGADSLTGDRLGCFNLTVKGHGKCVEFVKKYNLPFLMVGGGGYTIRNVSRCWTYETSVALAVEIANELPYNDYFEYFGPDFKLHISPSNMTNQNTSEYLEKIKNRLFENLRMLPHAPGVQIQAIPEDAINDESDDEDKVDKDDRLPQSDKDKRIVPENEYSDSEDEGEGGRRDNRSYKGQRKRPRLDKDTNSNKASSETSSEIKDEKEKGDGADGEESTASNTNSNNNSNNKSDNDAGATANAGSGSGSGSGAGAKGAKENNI

Results are given in words; binding and its absence hold for the method and conditions named. In cells and extracts the contact can be indirect. A yes stands for co-enrichment or nearness to the bait. Other partners may have been found. Sequences can lack the tags named with a protein.

The assay has as its target T1, V5-tagged RRP6 (D. melanogaster) (UniProt Q9VFF3).
T1 sequence: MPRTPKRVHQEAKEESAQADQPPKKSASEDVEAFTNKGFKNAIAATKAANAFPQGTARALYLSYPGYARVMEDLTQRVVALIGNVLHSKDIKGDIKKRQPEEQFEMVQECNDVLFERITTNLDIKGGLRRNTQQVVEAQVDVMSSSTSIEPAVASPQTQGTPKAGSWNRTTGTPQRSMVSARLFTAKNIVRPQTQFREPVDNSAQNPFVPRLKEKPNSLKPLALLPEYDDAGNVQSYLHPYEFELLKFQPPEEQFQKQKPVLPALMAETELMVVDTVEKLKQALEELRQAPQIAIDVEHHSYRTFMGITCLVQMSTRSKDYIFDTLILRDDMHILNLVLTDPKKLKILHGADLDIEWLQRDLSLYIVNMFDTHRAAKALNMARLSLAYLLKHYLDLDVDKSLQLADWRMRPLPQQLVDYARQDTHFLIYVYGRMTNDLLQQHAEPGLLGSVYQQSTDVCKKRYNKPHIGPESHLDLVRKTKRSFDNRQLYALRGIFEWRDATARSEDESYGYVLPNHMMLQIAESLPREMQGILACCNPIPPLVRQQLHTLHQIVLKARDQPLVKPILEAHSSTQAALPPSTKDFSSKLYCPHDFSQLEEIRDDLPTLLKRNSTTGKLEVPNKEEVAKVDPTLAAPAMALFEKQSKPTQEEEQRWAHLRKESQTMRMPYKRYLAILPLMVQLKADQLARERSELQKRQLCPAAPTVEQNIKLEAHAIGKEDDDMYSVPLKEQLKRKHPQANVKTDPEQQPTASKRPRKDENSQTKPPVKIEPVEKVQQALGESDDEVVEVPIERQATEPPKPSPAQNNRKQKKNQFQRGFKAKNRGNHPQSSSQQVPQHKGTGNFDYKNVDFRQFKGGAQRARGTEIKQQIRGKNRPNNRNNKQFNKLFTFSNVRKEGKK
Briefly: affinity purification with mass spectrometry; anti-V5 immunoprecipitation from RNase A-digested nuclear extracts of S2 cells expressing RRP6-V5, LC/MS-MS; 'empty' S2 cells as negative control; FDR 0.01, minimum fold-difference 2.
“transcription elongation factor SPT5 (from UniProt Q9V460 1-1078)”: the binding result is “binds”. For the substance “SU(VAR)3-9 (from UniProt P45975 1-635) (enzyme)”, the binding entry is “binds”. Then “transcription elongation factor SPT6 (from UniProt Q9W420 1-1831)”, with “binds”; and “RPD3 (from UniProt Q94517 1-521) (enzyme)”, with “binds”.
